Data taken from paper PMC5058708.

The chains behind the UniProt entries cited, without tags or fusion partners. Where a name states a change or a piece, a line headed by the entry shows the natural chain unless it says otherwise.
UniProt P18266: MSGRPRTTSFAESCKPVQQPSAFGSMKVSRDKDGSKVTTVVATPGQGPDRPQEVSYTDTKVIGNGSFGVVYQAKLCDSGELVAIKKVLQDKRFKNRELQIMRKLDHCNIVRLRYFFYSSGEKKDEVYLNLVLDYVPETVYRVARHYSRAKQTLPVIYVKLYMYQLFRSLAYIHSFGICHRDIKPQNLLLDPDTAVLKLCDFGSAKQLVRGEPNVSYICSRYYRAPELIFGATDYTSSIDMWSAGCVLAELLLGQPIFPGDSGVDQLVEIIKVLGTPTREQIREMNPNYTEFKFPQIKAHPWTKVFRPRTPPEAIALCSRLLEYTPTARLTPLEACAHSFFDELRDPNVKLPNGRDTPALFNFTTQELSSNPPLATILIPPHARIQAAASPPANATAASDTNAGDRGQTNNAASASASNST
UniProt P24268: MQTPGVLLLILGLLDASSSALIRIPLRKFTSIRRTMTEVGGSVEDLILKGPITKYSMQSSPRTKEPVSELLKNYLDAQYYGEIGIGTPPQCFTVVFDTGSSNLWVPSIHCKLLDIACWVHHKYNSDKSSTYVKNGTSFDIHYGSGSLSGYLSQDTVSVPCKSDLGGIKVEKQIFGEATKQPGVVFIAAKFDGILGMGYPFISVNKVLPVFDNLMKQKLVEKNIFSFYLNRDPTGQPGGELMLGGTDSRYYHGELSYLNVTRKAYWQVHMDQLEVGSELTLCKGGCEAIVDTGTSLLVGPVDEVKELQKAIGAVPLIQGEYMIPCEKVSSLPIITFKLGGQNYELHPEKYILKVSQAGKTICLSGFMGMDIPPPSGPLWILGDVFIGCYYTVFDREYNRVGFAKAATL
UniProt Q07936: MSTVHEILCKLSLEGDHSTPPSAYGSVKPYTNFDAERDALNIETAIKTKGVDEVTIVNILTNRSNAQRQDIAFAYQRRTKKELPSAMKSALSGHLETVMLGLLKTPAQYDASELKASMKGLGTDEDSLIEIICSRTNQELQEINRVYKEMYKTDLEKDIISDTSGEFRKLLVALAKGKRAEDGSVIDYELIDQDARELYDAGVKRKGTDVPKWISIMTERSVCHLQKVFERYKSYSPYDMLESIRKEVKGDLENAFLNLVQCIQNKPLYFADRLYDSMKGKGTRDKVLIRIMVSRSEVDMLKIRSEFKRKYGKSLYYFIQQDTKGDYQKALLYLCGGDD
UniProt A0ACM8Q1Z9: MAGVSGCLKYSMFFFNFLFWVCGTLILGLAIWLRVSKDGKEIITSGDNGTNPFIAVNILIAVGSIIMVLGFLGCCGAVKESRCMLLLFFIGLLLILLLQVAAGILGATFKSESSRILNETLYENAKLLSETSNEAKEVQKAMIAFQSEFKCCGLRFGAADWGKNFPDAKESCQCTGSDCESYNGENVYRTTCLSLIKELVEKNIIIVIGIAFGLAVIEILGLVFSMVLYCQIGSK

Legend:
Assay in all cases: co-IP; lysates of wt, kd and rescue ASML clones; HEPES buffer, 1% Lubrol, 30 min at 4°C; antibody 1 h at 4°C, ProteinG-Sepharose 1 h; SDS-PAGE and Western blot
[1] = target: T1, claudin7 (rat (endogenous in ASML)) (UniProt Q9Z1L1)
T1 sequence (chain, palmitoylated (palmitoylation is prevented by mutating AA184 and AA186)): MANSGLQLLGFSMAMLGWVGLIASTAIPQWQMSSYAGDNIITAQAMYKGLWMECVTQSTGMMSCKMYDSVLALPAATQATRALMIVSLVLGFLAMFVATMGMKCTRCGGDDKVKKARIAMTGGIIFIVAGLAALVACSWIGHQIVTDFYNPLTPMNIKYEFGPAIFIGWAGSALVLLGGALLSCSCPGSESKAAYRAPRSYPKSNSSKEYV

[2] = target: GSK3β (rat (endogenous in ASML)) (UniProt P18266)
[3] = target: T2, Lamp1 (rat (endogenous in ASML)) (UniProt P14562)
T2 sequence: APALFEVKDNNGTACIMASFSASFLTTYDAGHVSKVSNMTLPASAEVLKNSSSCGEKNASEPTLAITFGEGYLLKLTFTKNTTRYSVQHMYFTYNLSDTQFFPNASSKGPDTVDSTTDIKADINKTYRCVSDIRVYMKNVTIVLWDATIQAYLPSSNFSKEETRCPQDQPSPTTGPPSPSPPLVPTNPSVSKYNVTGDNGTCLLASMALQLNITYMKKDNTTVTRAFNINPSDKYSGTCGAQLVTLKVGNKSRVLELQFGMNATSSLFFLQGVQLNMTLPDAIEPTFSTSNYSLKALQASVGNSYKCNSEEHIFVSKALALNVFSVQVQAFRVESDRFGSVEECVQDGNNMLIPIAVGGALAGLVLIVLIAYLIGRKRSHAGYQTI

[4] = target: CathepsinD (rat (endogenous in ASML)) (UniProt P24268)
[5] = target: AnnII (rat (endogenous in ASML)) (UniProt Q07936)
[6] = target: T3, EpCAM (rat (endogenous in ASML)) (UniProt O55159)
T3 sequence: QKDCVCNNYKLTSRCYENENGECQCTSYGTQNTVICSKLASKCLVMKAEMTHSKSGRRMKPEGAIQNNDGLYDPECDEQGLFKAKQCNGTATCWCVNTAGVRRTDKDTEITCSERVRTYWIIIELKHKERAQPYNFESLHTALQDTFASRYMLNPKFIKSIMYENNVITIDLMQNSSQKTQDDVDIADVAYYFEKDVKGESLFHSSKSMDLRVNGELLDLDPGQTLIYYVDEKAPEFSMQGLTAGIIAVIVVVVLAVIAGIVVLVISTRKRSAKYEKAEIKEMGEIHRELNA

[7] = target: EpC with a AG point mutation (UniProt O55159)
[8] = target: rab5 (rat (endogenous in ASML))
[9] = target: CathepsinD (rat (endogenous in ASML)) (UniProt P24268); remark: listed apart in the source
[10] = target: EpC with a AG point mutation (UniProt O55159); remark: listed apart in the source
[11] = target: rab7 (rat (endogenous in ASML))
[12] = target: dynamin (rat (endogenous in ASML))

- binding [1]: no binding
Molecule: Nanog (rat (endogenous in ASML))

- binding [1]: no binding
Molecule: Snail (rat (endogenous in ASML))

- binding [2]: binds
- binding [3]: binds
- binding [4]: binds
- binding [5]: binds
Molecule: cld7 with a mutation in the palmitoylation site (from UniProt Q9Z1L1)

- binding [6]: binds
- binding [7]: binds
Molecule: tetraspanin Tspan8 (from UniProt A0ACM8Q1Z9)

- binding [8]: binds
- binding [9]: binds
- binding [10]: no binding
- binding [11]: binds
- binding [12]: binds
B1: claudin7 (protein, UniProt Q9Z1L1 1-211)
chain: MANSGLQLLGFSMAMLGWVGLIASTAIPQWQMSSYAGDNIITAQAMYKGLWMECVTQSTGMMSCKMYDSVLALPAATQATRALMIVSLVLGFLAMFVATMGMKCTRCGGDDKVKKARIAMTGGIIFIVAGLAALVACSWIGHQIVTDFYNPLTPMNIKYEFGPAIFIGWAGSALVLLGGALLSCSCPGSESKAAYRAPRSYPKSNSSKEYV
modifications: palmitoylated (palmitoylation is prevented by mutating AA184 and AA186)

Read-outs that look alike come from different tables or passages of the source. Results are given in words; binding and its absence hold for the method and conditions named. Binding seen in cells or lysates may run through a third protein. For some of these results: Binding can be weak; no strength is given. One block for each molecule: values may come before it.
